Reference: patent US20260240822A1, “Methods and Compositions for Treating Atopic Dermatitis” (Regranion, LLC, priority 2023, published 2026)
For at least one compound, name, drawing or mass did not settle the structure.

Test system: MC903-induced AD-like skin inflammation
Assay: MC903-induced atopic dermatitis mouse model
Type: in vivo, Female Balb/cAnNRj mice
Method: Punch biopsies were stored in 750 μL RNAlater-ICE (ThermoFisher) at −80° C. for 20 minutes and overnight at −20° C. Then, the biopsies were added to 175 μL SV RNA lysis buffer with β-mercaptoethanol (SV Total RNA Isolation System; Promega) followed by homogenization using TissueLyser (Qiagen, Hilden, Germany). The remaining steps including RNA purification and DNase treatment were conducted following the manufacturer's instructions.
cDNA was generated using total RNA, TaqMan Reverse Transcription Reagents with random hexamers (ThermoFisher) and Peltier Thermal Cycler-200 (MJ Research Inc, Waltham, MA, USA) following the manufacturer's instructions. […]
To induce AD-like skin inflammation, 1 or 2.5 nmol of MC903 in 25 μL absolute ethanol was topically applied once daily to the ventral and dorsal surface of the right ear for six consecutive days. […] Ear thickness, the primary clinical endpoint for inflammation, was measured daily with a digital calliper (Mitutoyo Corporation, Kawasaki, Japan), and body weight was measured throughout the study to monitor the welfare of mice. […]

## C[C@@H]1C[C@H]2[C@@H]3CCC4=CC(=O)C=C[C@]4(C)[C@@]3(F)[C@@H](O)C[C@]2(C)[C@@]1(O)C(=O)CO [dexamethasone, reference compound]
Topical 20 nmol, 1 nmol MC903
  ear thickness: ear thickness below baseline levels
topical, 1 nmol MC903, ear biopsies
  epidermal and dermal thickness (histology): significantly decreased
